Drawing on PMC10803359, this text covers binding for one molecule.

No constants are given. Whether binding was seen depends on the method and setting. Some results given as binding are weak or reduced against the parent protein; the word gives no strength. Where a sequence is shown, tags or fusion partners need not be part of it.

This assay addresses T1, EMBRYONIC FLOWER 2 (EMF2), yeast two-hybrid fusion (Arabidopsis thaliana) (UniProt Q8L6Y4).
T1 sequence: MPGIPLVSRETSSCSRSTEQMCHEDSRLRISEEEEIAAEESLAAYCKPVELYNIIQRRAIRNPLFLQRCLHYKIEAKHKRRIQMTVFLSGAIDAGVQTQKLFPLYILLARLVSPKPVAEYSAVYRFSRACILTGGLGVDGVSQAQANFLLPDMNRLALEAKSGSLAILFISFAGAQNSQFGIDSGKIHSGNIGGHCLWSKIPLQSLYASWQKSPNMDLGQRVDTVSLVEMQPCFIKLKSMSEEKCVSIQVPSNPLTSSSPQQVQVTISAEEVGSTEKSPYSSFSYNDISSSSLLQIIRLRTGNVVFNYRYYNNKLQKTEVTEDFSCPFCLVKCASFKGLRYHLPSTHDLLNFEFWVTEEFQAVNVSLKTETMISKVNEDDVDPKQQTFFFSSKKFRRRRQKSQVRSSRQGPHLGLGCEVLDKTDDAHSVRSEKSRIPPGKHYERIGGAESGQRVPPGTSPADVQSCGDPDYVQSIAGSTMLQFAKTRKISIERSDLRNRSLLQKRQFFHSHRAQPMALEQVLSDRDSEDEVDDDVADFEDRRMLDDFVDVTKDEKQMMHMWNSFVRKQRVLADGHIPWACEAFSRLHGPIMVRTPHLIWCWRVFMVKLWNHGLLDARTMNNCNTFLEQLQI
Briefly: two-hybrid; GAL4 yeast two-hybrid in S. cerevisiae AH109; growth on SD-L-W-H in serial dilutions, 3 to 4 days at 28 °C; empty bait and prey vectors as negative controls.

B1: UBP5, yeast two-hybrid fusion (enzyme, UniProt O22207 1-924)
chain: MAEVSMGSSSSSTDLSPEEERVFIRDIAIAAEANSKEGDTFYLITQRWWQEWIEYVNQDQPCNTNDGSSLSEHCDSPGSSTLKKPSRIDNSDLIYDSSLEDPSNTSEIIETLQEGRDYVLLPQEVWNQLRSWYGGGPTLARRVISSGLSQTELAVEVYPLRLQLLLMPKSDHSAIRISKKETIRELHRRACEIFDLDSEHVRIWDYYGHQKYSLMNDLDKTLDDANLQMDQDILVEVLDINGTLSSAHIQSAQENGLVDGDSTSILIEPSKSSLAAAGGFSSSRNAFRTGSVEVSQSFDNTYSSTGVTTRGSTAGLTGLLNLGNTCFMNSAIQCLVHTPEFASYFQEDYHQEINWQNPLGMVGELALAFGDLLRKLWAPGRTPIAPRPFKAKLARFAPQFSGYNQHDSQELLAFLLDGLHEDLNRVKHKPYINSRDADGRPDEEVADEFWKNHIARNDSIIVDVCQGQYKSTLVCPICNKVSVTFDPFMYLSLPLQFNTTRAITVTVFSCDKTALPSTITVNVSKQGRCRDLIQALTNACSLKQSEELKLAEIRNNFIHRLFEDPLIPLSSIKDDDHLAAYKLSKSSENTTLLRLVLRRRDQKAGERESTVQLKPCGTPLLSSASCGDALTKGKIHCLVQNMLSPFRREESVGKKGNSDSSIPERRSARFNNTEEEDKVGGLKKAKKSNSSDLGASKLSLQLIDEDNKTINLPDNEAEAMKLPSSATVTIYLDWTPELSGMYDITCLESLPEVLKYGPTTKKARSEPLSLYACLEAFLREEPLVPDEMWFCPQCNERRQASKKLDLWRLPEVLVIHLKRFSYSRSMKHKLETFVNFPIHDLDLTKYVANKNLSQPQLYELYALTNHYGGMGSGHYTAHIKLLDDSRWYNFDDSHISHINEDDVKSGAAYVLFYRRKSDAGGKMT
B1: the binding entry is “binds”.
